Data as given in PubChem BioAssay AID1259254 (NCATS, 2017)
This is an unselected part of about 59,000 deposited reagents. Over the whole deposit, about 1,550 (2.6%) got an active call. 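G2 share is only a proxy for re-replication; each gene was hit by three separate siRNAs, and active genes were retested.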 A number with no mark means an inactive call. Reagents against one gene are numbered here. Further read-outs or replicates are left out here. The record does not give: the amount of reagent.

- Assay: 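Genome-wide screen for genes that prevent DNA re-replication in cancer cells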 (primary screen)
- System: human HCT116 colorectal cancer cells
- Knock-down reagent: single siRNA against human genes
- Timing: 3 days
- Read-out: 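Imaged Hoechst DNA stain sorts each cell into a cycle phase by DNA amount; per plate, G2 fraction set to 0% for non-targeting and 100% for GMNN siRNA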
- Reading the numbers: G2 robust z-score and G2 cells, % of GMNN control: higher = more G2 cells, more excess DNA replication
- Hit rule: 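An siRNA counts as active if its G2 robust z-score lies at least 5 MADs above the screen median; here such calls match roughly 38% of GMNN control or more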

no.	gene	siRNA no.	G2 robust z-score	G2 cells, % of GMNN control
1	XIAP	1	-0.0614	2.54
2	XIAP	2	-0.324	0.69
3	XIAP	3	-0.583	-1.13
4	SSBP3	1	0.963	9.74
5	SSBP3	2	2.66	21.7
6	SSBP3	3	0.0791	3.52
7	RPRM	1	-0.792	-2.61
8	RPRM	2	0.725	8.07
9	RPRM	3	0.474	6.3
10	DCHS2	1	0.356	5.47
11	DCHS2	2	0.547	6.82
12	DCHS2	3	-0.457	-0.247
13	RAB7B	1	-0.409	0.0921
14	RAB7B	2	-1.11	-4.82
15	RAB7B	3	-0.713	-2.05
16	RAD51AP1	1	-0.0486	2.63
17	RAD51AP1	2	-0.542	-0.844
18	RAD51AP1	3	0.911	9.38
19	ODC1	1	2.07	17.5
20	ODC1	2	2.45	20.2
21	ODC1	3	-0.256	1.16

4 entries from above, sorted by “G2 robust z-score”, lowest first:
gene	siRNA no.	G2 robust z-score	G2 cells, % of GMNN control
XIAP	3	-0.583	-1.13
SSBP3	3	0.0791	3.52
SSBP3	1	0.963	9.74
SSBP3	2	2.66	21.7

More results follow.
no.	gene	siRNA no.	G2 robust z-score	G2 cells, % of GMNN control
22	CCDC134	1	-0.251	1.2
23	CCDC134	2	3.79	29.6
24	CCDC134	3	0.682	7.77
25	ADCK1	1	0.343	5.38
26	ADCK1	2	-0.675	-1.78
27	ADCK1	3	2.2	18.4
28	TM9SF2	1	-0.354	0.475
29	TM9SF2	2	-0.972	-3.87
30	TM9SF2	3	0.282	4.95
31	PIM2	1	0.98	9.86
32	PIM2	2	3.94	30.7
33	PIM2	3	-0.139	1.99
34	DPP4	1	-0.164	1.81
35	DPP4	2	0.986	9.91
36	DPP4	3	-0.737	-2.22
37	DOC2A	1	-0.661	-1.68
38	DOC2A	2	1.14	11
39	DOC2A	3	0.744	8.2
40	GBF1	1	-1.04	-4.32
41	GBF1	2	-0.874	-3.18
42	GBF1	3	0.6	7.19
43	HIRIP3	1	2.2	18.4
44	HIRIP3	2	-0.833	-2.89
45	HIRIP3	3	-0.781	-2.52
46	RPL13A	1	0.824	8.77
47	RPL13A	2	3.94	30.7
48	RPL13A	3	4.51	34.7
